These results are taken from paper PMC7610337.

The chains behind the UniProt entries cited, without tags or fusion partners. Residues count along the entry.
UniProt Q60751, residues 31-1373: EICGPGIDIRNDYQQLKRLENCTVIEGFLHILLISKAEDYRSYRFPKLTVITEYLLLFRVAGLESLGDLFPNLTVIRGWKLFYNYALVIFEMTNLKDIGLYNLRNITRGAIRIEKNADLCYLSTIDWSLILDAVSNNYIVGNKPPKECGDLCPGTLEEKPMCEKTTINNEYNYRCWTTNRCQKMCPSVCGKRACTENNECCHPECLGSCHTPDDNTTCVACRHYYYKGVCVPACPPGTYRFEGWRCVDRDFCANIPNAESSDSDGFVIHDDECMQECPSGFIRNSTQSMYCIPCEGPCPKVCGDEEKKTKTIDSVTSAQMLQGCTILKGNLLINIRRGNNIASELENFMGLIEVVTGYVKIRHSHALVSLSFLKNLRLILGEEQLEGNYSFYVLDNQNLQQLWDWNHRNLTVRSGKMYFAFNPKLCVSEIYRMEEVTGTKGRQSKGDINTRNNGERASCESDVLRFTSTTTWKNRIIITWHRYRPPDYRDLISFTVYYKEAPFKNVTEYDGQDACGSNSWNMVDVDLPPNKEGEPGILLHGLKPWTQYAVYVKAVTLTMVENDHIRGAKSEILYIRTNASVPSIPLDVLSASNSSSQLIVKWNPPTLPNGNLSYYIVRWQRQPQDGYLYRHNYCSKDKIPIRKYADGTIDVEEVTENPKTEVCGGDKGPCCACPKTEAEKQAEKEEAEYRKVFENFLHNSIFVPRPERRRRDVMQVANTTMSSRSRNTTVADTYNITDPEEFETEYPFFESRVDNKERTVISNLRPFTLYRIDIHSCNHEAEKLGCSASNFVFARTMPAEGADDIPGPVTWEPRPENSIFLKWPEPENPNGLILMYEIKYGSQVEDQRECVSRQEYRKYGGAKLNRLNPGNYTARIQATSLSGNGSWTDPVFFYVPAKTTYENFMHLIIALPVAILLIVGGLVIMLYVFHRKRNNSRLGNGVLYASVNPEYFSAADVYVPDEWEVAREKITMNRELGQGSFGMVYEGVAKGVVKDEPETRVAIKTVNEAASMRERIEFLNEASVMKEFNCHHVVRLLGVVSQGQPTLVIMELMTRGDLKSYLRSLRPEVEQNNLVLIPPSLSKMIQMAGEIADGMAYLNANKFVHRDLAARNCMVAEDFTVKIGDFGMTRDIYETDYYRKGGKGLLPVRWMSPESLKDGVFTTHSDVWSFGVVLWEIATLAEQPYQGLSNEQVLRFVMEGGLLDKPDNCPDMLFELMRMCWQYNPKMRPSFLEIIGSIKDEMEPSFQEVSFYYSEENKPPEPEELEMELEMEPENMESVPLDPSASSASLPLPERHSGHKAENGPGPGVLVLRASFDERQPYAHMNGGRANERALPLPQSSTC
UniProt P08069, residues 31-1367: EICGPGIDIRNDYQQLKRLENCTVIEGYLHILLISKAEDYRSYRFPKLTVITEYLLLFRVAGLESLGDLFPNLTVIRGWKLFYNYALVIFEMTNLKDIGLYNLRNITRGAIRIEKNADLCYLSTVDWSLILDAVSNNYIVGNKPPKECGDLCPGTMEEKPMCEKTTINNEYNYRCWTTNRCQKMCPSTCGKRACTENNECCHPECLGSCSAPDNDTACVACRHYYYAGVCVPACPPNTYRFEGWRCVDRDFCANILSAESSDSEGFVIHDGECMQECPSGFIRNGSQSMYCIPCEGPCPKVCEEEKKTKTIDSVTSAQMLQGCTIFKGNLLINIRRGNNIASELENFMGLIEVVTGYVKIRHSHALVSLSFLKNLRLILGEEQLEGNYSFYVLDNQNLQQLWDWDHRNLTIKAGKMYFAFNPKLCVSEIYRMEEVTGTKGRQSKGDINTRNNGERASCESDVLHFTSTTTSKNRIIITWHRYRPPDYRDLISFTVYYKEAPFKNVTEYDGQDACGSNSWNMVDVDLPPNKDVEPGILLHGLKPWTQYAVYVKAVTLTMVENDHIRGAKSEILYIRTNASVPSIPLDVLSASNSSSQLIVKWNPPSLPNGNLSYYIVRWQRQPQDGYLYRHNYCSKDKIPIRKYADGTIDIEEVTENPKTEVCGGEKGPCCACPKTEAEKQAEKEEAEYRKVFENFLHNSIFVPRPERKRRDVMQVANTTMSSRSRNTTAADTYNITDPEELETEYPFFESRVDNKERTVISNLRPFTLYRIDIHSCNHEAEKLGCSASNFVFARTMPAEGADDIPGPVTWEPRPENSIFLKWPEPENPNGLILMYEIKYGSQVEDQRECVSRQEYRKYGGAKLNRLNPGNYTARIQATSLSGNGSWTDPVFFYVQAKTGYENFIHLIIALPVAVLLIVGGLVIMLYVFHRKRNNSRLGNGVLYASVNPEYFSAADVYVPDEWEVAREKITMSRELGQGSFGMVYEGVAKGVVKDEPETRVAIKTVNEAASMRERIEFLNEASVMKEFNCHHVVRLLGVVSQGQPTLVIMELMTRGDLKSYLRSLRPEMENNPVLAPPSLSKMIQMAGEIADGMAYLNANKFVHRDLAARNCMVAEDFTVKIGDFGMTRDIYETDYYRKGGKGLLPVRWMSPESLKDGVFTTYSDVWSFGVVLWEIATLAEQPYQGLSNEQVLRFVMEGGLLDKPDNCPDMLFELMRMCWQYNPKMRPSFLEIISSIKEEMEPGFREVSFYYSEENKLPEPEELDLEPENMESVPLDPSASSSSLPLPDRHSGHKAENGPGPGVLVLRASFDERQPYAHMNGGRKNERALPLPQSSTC
UniProt P26618, residues 25-1089: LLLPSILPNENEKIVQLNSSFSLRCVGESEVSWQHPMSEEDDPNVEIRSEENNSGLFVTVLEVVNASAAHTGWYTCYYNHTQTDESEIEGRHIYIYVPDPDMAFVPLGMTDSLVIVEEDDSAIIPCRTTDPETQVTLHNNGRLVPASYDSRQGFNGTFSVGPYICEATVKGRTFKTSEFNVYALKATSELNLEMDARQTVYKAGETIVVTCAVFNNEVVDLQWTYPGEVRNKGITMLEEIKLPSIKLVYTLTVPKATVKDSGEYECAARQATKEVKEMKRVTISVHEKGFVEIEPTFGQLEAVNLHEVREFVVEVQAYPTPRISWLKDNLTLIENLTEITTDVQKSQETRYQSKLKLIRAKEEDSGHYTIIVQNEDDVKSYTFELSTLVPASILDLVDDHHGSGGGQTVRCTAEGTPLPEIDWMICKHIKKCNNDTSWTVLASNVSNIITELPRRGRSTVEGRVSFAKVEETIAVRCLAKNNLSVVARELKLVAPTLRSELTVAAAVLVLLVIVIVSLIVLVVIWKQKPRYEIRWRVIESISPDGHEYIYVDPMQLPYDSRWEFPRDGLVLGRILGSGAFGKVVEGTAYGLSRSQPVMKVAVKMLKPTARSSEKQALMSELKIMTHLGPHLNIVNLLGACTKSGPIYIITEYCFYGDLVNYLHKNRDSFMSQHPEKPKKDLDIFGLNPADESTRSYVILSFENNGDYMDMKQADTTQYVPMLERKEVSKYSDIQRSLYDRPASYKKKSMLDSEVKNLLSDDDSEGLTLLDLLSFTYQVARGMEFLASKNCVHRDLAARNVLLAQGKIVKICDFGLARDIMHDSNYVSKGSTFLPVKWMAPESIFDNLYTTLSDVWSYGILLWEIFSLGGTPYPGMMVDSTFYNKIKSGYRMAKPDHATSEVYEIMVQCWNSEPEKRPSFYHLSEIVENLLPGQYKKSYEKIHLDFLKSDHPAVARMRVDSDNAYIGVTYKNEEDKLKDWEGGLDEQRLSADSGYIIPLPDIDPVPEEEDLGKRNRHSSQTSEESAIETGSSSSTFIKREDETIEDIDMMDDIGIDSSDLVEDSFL
UniProt P16234, residues 24-1089: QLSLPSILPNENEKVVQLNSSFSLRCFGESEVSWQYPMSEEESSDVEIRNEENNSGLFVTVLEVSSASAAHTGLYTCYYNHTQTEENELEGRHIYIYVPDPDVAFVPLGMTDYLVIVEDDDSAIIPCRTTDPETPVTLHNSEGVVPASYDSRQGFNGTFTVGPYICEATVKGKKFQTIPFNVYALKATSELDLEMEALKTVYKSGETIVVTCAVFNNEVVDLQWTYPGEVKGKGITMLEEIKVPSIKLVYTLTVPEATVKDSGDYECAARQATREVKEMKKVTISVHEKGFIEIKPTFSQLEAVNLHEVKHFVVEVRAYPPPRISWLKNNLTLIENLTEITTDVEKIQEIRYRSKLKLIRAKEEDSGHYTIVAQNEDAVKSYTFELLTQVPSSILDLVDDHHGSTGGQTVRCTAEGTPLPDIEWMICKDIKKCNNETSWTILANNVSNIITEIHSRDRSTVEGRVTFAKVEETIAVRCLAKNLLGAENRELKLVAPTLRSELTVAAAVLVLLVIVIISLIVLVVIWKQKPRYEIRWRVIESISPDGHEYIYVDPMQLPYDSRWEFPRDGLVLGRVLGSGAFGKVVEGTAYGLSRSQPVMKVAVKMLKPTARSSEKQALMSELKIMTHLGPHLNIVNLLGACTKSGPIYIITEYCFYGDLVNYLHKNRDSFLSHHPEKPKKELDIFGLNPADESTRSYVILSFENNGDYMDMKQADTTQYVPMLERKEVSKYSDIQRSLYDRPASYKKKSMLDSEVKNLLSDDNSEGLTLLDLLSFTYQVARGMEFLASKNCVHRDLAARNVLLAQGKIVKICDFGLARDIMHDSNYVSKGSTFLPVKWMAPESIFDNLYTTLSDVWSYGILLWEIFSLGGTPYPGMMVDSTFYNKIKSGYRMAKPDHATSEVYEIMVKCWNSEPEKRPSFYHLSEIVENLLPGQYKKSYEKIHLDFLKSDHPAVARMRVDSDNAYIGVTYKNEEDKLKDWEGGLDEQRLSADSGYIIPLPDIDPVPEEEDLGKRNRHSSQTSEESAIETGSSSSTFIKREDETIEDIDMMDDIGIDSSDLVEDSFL

No constants are given. Whether binding was seen depends on the method and setting. Binding seen in cells or lysates may run through a third protein. Some entries that bind do so weakly or less than the wild type.

Assay [1] deals with mouse IGF1R, exogenously expressed (mouse) (UniProt Q60751). As to the kind of experiment: co-IP; exogenous PDGFRα and IGF1R co-expressed in HEK293(FT) cells; lysis in Beyotime cell lysis buffer for Western and IP with protease and phosphatase inhibitors; lysate precleared with mouse IgG and Protein A/G PLUS-Agarose; which receptor was precipitated is not given.
Assay [2] has as its target human IGF1R, exogenously expressed (human) (UniProt P08069). The description is as above.

As to “mouse PDGFRα, exogenously expressed (from UniProt P26618 25-1089) (receptor)”, in assay [1], the binding result is listed as “binds”. Turning to “human PDGFRα, exogenously expressed (from UniProt P16234 24-1089) (receptor)”, the binding result in assay [2] is “binds”.
